# Source: article PMC7099064
# Sequences of proteins named here, by UniProt entry; tags and fusion partners are left off.
# UniProt Q6Q629: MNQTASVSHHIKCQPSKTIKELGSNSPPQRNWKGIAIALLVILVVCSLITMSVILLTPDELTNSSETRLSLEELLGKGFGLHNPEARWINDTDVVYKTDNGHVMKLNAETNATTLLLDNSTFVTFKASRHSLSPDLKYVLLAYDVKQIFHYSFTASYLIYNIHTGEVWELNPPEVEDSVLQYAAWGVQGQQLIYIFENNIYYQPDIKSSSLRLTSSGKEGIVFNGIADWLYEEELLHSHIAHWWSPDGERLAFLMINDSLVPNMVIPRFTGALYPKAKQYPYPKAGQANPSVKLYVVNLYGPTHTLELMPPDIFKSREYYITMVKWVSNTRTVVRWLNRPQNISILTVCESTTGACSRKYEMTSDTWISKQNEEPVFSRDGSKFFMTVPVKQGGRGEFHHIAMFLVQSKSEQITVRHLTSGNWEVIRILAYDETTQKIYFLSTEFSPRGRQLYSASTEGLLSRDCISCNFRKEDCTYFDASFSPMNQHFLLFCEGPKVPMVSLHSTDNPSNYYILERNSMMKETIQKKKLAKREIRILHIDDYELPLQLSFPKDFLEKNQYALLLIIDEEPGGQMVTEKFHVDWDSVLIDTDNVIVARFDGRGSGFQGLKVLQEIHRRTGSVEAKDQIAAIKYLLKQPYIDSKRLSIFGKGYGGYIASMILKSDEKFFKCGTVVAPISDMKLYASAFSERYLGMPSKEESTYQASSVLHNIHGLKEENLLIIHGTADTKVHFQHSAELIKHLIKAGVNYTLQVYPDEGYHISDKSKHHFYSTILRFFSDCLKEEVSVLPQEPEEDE
# T1: TAP-tagged Kv4.2 (lentivirally expressed in cultured hippocampal neurons) (UniProt Q9NZV8)
# T1 sequence: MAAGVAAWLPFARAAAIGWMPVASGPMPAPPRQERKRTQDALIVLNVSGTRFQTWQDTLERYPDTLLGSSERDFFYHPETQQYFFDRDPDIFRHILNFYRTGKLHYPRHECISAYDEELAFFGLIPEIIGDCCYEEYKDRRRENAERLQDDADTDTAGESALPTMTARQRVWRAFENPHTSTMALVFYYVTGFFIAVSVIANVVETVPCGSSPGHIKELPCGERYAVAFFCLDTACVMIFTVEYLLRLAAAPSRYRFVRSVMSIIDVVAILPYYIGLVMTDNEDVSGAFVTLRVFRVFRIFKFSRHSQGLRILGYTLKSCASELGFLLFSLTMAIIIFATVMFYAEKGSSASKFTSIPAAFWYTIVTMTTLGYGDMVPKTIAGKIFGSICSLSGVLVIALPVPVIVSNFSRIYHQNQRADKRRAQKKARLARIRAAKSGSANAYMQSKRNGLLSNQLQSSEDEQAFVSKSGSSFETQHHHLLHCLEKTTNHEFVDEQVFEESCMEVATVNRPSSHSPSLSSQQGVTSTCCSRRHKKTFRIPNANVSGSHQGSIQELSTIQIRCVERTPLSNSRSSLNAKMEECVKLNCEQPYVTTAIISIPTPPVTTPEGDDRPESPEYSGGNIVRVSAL
# B1: K+ channel interacting protein 2 (KChIP2), endogenous in cultured hippocampal neurons (protein, UniProt Q9JM59 1-270)
# chain: MRGQGRKESLSESRDLDGSYDQLTGHPPGPSKKALKQRFLKLLPCCGPQALPSVSETLAAPASLRPHRPRPLDPDSVEDEFELSTVCHRPEGLEQLQEQTKFTRRELQVLYRGFKNECPSGIVNEENFKQIYSQFFPQGDSSNYATFLFNAFDTNHDGSVSFEDFVAGLSVILRGTIDDRLSWAFNLYDLNKDGCITKEEMLDIMKSIYDMMGKYTYPALREEAPREHVESFFQKMDRNKDGVVTIEEFIESCQQDENIMRSMQLFDNVI
# B2: K+ channel interacting protein 4 (KChIP4), endogenous in cultured hippocampal neurons (protein, UniProt Q99MG9 1-250)
# chain: MNVRRVESISAQLEEASSTGGFLYAQNNTKRSIKERLMKLLPCSAAKTSSPAIQNSVEDELEMATVRHRPEALELLEAQSKFTKKELQILYRGFKNECPSGVVNEETFKEIYSQFFPQGDSTTYAHFLFNAFDTDHNGAVSFEDFIKGLSILLRGTVQEKLNWAFNLYDINKDGYITKEEMLDIMKAIYDMMGKCTYPVLKEDAPRQHVETFFQKMDKNKDGVVTIDEFIESCQKDENIMRSMQLFENVI
# B3: K+ channel interacting protein 3 (KChIP3), endogenous in cultured hippocampal neurons (protein, UniProt Q9JM47 1-256)
# chain: MQRTKEAMKASDGSLLGDPGRIPLSKREGIKWQRPRFTRQALMRCCLIKWILSSAAPQGSDSSDSELELSTVRHQPEGLDQLQAQTKFTKKELQSLYRGFKNECPTGLVDEDTFKLIYSQFFPQGDATTYAHFLFNAFDADGNGAIHFEDFVVGLSILLRGTVHEKLKWAFNLYDINKDGYITKEEMLAIMKSIYDMMGRHTYPILREDAPLEHVERFFQKMDRNQDGVVTIDEFLETCQKDENIMSSMQLFENVI
# Biological target: T1, TAP-tagged Kv4.2 (lentivirally expressed in cultured hippocampal neurons)
# Test: affinity purification with mass spectrometry; TAP-tagged Kv4.2 expressed by lentivirus in cultured hippocampal neurons, harvested at DIV14, TAP purification kit (Agilent), SDS-PAGE, in-gel trypsin digestion, MS; control IRES-GFP lentivirus
row,binding,Molecule
1,binds,"dipeptidyl peptidase 10 (DPP10), endogenous in cultured hippocampal neurons (from UniProt Q6Q629 1-796)"
2,binds,B1
3,binds,B2
4,binds,B3

# Results are given in words; binding and its absence hold for the method and conditions named. In cells and extracts the contact can be indirect. Here binding means that the protein was enriched with, or labelled near, the bait; the list need not be complete. Where a sequence is shown, tags or fusion partners need not be part of it.
